Results are given in words; binding and its absence hold for the method and conditions named. Binding seen in cells or lysates may run through a third protein. Some binding calls cover weakened binding; strength is not graded here.
T1: CREB5 (cAMP responsive element binding protein 5) (human (endogenous in LoVo and SW480)) (UniProt Q02930)
T1 sequence: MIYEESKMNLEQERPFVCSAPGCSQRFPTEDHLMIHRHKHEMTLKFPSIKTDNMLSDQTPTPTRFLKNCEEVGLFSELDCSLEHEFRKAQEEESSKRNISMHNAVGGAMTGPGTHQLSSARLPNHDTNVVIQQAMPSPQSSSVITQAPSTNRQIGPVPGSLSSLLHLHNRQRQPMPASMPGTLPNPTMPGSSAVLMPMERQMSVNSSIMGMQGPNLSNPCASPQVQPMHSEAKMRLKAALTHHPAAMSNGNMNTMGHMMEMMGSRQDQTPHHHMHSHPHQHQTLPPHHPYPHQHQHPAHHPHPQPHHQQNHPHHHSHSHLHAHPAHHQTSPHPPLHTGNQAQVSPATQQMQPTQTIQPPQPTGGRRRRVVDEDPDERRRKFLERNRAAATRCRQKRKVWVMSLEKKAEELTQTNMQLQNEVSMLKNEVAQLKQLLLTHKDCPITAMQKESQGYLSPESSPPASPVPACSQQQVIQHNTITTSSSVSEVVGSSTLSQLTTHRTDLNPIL

T2: ATF2 (human (endogenous in LoVo and SW480)) (UniProt P15336)
T2 sequence: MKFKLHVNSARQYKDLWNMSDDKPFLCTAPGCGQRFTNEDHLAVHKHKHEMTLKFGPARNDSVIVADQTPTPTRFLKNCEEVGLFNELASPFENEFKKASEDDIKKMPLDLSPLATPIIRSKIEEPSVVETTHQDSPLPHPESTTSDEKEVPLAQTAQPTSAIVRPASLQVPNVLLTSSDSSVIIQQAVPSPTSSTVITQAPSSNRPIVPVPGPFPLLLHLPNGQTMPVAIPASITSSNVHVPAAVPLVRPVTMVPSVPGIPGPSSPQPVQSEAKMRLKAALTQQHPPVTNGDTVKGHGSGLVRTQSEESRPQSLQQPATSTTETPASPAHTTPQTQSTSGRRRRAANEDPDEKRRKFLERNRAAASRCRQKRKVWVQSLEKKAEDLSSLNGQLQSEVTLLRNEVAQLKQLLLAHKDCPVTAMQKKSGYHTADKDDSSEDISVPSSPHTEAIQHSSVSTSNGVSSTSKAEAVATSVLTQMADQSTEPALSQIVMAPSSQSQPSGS


What was measured:
[1] = target: T1, CREB5 (cAMP responsive element binding protein 5) (human (endogenous in LoVo and SW480)); test: co-IP; whole cell lysates of LoVo and SW480 cells; supernatant incubated with anti-CREB5 or anti-ATF2 antibody or IgG control overnight at 4 °C, protein A/G agarose beads 2 h at 4 °C, western blot of the immunoprecipitates; endogenous proteins
[2] = target: T2, ATF2 (human (endogenous in LoVo and SW480)); test: as above

Binder | binding [1] | binding [2]
ATF2 (protein, UniProt P15336 1-505) MKFKLHVNSARQYKDLWNMSDDKPFLCTAPGCGQRFTNEDHLAVHKHKHEMTLKFGPARNDSVIVADQTPTPTRFLKNCEEVGLFNELASPFENEFKKASEDDIKKMPLDLSPLATPIIRSKIEEPSVVETTHQDSPLPHPESTTSDEKEVPLAQTAQPTSAIVRPASLQVPNVLLTSSDSSVIIQQAVPSPTSSTVITQAPSSNRPIVPVPGPFPLLLHLPNGQTMPVAIPASITSSNVHVPAAVPLVRPVTMVPSVPGIPGPSSPQPVQSEAKMRLKAALTQQHPPVTNGDTVKGHGSGLVRTQSEESRPQSLQQPATSTTETPASPAHTTPQTQSTSGRRRRAANEDPDEKRRKFLERNRAAASRCRQKRKVWVQSLEKKAEDLSSLNGQLQSEVTLLRNEVAQLKQLLLAHKDCPVTAMQKKSGYHTADKDDSSEDISVPSSPHTEAIQHSSVSTSNGVSSTSKAEAVATSVLTQMADQSTEPALSQIVMAPSSQSQPSGS | binds | –
CREB5 (cAMP responsive element binding protein 5) (protein, UniProt Q02930 1-508) MIYEESKMNLEQERPFVCSAPGCSQRFPTEDHLMIHRHKHEMTLKFPSIKTDNMLSDQTPTPTRFLKNCEEVGLFSELDCSLEHEFRKAQEEESSKRNISMHNAVGGAMTGPGTHQLSSARLPNHDTNVVIQQAMPSPQSSSVITQAPSTNRQIGPVPGSLSSLLHLHNRQRQPMPASMPGTLPNPTMPGSSAVLMPMERQMSVNSSIMGMQGPNLSNPCASPQVQPMHSEAKMRLKAALTHHPAAMSNGNMNTMGHMMEMMGSRQDQTPHHHMHSHPHQHQTLPPHHPYPHQHQHPAHHPHPQPHHQQNHPHHHSHSHLHAHPAHHQTSPHPPLHTGNQAQVSPATQQMQPTQTIQPPQPTGGRRRRVVDEDPDERRRKFLERNRAAATRCRQKRKVWVMSLEKKAEELTQTNMQLQNEVSMLKNEVAQLKQLLLTHKDCPITAMQKESQGYLSPESSPPASPVPACSQQQVIQHNTITTSSSVSEVVGSSTLSQLTTHRTDLNPIL | – | binds

— article PMC10564889
